Assay results: the supplement of paper PMC12067093, “Discovery and optimisation of a covalent ligand for TRIM25 and its application to targeted protein ubiquitination” (Chemical Science, 2025)
The list shows a part of the results.

Amino acid sequences for entries named in this document (tags omitted). A change or cut given only in a name is not applied to a line headed by its entry.
UniProt Q9H8Y5: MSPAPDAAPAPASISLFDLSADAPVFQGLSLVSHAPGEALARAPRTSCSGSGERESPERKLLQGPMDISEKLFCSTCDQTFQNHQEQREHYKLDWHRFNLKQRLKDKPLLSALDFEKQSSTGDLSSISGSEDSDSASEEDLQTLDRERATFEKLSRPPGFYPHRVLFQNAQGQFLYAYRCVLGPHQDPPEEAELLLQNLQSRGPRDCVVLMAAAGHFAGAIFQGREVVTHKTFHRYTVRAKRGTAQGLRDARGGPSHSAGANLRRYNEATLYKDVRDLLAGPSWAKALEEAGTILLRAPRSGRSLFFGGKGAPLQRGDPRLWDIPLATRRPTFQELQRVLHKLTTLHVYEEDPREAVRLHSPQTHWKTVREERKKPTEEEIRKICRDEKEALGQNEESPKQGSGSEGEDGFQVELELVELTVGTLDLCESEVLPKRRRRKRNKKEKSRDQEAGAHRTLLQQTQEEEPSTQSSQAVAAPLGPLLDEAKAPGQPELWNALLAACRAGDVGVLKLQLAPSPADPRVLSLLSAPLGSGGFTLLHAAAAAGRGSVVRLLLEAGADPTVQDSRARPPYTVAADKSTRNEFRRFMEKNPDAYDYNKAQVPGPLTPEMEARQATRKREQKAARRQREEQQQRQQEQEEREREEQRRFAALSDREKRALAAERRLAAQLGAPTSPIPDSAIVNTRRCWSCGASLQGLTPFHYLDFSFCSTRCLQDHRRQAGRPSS
UniProt Q8IUX4: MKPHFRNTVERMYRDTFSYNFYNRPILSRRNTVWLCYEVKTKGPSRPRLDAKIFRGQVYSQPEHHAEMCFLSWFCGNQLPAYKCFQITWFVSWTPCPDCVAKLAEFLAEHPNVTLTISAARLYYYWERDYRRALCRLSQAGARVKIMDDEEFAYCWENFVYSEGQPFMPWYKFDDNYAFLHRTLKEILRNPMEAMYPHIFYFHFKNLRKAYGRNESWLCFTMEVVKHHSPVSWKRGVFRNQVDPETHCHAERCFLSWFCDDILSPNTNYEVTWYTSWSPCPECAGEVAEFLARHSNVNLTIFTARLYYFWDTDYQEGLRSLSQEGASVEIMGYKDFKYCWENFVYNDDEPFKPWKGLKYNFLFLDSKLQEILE
UniProt P08133: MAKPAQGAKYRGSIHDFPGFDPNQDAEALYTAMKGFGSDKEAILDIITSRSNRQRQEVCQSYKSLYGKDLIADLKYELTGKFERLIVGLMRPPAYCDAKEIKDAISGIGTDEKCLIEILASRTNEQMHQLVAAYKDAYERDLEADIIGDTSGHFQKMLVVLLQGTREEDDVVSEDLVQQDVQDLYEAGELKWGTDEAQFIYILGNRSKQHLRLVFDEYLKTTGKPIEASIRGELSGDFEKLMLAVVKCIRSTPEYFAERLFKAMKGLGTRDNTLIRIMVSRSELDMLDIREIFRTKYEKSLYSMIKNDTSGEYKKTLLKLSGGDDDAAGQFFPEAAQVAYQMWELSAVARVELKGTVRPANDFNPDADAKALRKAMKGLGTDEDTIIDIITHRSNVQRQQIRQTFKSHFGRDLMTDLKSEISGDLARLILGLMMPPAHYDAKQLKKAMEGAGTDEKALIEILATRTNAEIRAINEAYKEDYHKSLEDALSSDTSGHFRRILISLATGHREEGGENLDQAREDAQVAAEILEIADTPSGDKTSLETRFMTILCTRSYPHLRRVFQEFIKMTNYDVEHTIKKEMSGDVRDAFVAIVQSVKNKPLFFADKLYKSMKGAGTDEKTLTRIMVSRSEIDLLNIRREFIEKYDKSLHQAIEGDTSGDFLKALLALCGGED
UniProt P09525: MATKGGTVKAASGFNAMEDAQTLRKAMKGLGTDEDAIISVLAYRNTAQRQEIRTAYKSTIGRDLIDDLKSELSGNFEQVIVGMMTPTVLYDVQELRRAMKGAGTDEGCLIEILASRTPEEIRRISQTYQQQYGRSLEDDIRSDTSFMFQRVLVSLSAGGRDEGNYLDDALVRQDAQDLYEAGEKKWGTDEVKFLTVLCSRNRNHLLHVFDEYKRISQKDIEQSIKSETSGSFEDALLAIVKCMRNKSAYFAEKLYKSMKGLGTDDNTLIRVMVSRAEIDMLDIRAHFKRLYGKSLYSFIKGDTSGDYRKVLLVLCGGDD
UniProt O14727: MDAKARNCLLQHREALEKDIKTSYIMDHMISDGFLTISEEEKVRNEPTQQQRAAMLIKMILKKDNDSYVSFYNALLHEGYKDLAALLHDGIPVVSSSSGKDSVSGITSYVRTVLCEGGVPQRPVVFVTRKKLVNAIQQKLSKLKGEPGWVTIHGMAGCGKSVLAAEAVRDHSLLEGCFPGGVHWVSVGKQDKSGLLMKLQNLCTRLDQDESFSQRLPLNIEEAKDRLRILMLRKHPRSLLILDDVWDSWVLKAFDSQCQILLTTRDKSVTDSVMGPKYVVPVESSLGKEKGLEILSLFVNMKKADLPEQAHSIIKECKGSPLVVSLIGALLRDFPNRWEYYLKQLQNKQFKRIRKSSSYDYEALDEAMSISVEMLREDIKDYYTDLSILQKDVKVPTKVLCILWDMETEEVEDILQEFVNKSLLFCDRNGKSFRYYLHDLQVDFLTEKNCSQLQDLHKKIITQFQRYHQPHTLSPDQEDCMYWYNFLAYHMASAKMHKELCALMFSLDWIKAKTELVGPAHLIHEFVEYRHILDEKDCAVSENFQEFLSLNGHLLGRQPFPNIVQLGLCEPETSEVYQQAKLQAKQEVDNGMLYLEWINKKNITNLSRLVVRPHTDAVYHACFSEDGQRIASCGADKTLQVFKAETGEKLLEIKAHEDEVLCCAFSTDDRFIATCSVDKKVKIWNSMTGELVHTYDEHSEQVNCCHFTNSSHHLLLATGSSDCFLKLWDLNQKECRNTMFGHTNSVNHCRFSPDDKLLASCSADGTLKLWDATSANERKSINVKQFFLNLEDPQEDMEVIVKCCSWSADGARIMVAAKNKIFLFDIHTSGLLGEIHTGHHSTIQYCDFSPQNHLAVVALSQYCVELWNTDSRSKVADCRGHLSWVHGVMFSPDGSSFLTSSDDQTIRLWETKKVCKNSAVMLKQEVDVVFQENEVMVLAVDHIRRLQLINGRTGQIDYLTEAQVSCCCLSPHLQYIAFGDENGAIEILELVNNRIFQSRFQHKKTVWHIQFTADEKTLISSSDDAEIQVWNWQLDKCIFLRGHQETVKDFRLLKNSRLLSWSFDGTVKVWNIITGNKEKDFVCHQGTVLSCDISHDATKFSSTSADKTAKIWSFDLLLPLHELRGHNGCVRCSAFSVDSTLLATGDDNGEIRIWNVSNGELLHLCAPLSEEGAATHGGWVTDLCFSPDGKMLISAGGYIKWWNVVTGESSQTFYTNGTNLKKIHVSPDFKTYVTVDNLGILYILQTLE
UniProt Q8IWZ3: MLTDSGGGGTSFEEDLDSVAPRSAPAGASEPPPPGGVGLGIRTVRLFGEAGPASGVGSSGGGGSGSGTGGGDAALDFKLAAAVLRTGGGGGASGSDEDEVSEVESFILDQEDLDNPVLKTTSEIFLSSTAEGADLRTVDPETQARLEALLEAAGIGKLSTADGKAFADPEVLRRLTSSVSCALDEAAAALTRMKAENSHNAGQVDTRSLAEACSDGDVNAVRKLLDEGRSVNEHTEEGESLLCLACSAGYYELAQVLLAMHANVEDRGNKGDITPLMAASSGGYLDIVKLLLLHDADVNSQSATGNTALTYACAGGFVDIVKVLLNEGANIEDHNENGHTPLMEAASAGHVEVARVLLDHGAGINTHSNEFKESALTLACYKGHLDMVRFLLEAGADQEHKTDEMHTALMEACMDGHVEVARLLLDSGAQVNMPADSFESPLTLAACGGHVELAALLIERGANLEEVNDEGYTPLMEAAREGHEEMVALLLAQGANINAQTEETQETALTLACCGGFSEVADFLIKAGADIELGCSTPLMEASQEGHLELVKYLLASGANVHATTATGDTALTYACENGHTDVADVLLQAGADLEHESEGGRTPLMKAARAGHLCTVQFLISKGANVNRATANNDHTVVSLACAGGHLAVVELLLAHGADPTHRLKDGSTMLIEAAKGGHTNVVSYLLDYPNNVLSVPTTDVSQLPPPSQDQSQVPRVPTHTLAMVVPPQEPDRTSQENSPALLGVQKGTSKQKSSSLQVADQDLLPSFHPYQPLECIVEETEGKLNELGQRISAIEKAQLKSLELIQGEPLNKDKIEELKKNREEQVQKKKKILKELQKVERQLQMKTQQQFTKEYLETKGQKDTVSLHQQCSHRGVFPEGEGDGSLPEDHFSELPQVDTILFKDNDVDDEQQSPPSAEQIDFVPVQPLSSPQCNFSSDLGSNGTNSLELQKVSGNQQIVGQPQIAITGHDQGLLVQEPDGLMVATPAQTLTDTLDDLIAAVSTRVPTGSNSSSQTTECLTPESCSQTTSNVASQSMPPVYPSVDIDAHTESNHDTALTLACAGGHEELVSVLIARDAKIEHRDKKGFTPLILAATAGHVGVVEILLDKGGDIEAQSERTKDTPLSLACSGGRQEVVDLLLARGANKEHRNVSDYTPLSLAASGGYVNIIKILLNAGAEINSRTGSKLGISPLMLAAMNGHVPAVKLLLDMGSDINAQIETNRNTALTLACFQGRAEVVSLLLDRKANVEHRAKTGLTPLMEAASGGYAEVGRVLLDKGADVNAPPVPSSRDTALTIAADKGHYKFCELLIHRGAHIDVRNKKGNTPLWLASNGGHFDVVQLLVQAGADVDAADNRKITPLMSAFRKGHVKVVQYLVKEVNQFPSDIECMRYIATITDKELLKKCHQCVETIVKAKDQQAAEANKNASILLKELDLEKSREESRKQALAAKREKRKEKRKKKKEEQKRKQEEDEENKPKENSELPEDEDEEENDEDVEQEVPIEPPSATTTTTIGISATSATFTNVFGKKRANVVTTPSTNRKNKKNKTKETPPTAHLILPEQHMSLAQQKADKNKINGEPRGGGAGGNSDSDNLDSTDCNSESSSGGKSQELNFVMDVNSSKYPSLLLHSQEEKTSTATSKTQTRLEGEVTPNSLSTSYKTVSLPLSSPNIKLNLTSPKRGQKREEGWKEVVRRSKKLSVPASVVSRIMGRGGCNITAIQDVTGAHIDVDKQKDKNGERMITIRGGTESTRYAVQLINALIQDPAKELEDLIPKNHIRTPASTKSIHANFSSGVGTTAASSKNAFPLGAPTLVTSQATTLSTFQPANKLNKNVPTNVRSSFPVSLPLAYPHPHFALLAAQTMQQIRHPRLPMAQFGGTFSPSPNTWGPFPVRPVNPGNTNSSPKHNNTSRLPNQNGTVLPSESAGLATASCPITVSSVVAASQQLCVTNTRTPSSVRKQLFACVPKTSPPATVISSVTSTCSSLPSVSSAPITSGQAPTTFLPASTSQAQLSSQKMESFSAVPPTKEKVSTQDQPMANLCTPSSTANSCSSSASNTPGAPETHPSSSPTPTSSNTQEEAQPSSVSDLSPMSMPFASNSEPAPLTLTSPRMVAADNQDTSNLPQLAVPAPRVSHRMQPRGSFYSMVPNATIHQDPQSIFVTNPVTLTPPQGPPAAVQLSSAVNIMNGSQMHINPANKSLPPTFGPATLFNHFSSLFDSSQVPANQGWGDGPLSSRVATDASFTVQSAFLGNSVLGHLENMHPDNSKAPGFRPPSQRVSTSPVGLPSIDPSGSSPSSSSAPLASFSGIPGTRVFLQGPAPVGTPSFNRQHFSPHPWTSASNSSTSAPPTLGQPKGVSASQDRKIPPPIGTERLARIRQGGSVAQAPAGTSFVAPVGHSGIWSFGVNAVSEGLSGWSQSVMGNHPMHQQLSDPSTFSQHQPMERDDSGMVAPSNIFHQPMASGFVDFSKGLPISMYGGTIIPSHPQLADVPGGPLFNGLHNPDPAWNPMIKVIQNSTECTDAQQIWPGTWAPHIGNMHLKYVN
UniProt P07355, whole entry, looked up: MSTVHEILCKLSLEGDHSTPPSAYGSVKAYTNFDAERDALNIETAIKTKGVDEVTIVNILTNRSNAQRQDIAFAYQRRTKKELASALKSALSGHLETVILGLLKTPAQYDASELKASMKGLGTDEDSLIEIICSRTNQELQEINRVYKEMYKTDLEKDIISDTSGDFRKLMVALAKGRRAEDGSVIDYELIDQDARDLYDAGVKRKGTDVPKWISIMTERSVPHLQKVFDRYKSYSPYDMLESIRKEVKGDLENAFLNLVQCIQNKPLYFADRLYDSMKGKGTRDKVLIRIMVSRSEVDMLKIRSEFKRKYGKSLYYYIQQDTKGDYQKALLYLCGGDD
UniProt Q53RE8: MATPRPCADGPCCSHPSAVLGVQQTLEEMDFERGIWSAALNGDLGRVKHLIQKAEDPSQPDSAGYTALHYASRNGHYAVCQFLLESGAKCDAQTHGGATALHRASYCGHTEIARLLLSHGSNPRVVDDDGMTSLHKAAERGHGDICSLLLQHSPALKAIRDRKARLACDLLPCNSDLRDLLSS

Compound: CC1Cc2ccccc2N1C(=O)C1CCCN(C1)C(=O)CCl (mixture of isomers) [TRIM25 ligand 11 (diastereomer mixture)]
Assay: probe-labelled cysteine peptide fold change vs DMSO (competition) (log2 fold change); higher = less target engagement (more negative = stronger competition)
Conditions: THP-1, incubation time: 4 h
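Also: competitive chemoproteomic profiling in live THP-1 cells with an iodoacetamide desthiobiotin (IA-DTB) probe, comparing probe-labelled peptide intensities in compound-treated cells against DMSO-treated controls.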

Target | probe-labelled cysteine peptide fold change (10 µM) | probe-labelled cysteine peptide fold change (50 µM)
AP2A1_O95782_129_NPTFMCLALHCIANVGSR (UniProt O95782) | 0.0108 | 0.26
APLP2_Q06481_80_SCFETK (UniProt Q06481) | 0.0295 | 0.0911
ANO10_Q9NW15_92_ECNDNTMR (UniProt Q9NW15) | 0.0463 | 0.043
ANKRD13A_Q8IZ07_5_SSACDAGDHYPLHLLVWK (UniProt Q8IZ07) | 0.0841 | -0.175
ANKZF1_Q9H8Y5_713_CLQDHR (UniProt Q9H8Y5) | 0.0195 | 0.127
APOBEC3F_Q8IUX4_36_RNTVWLCYEVK (UniProt Q8IUX4) | 0.0263 | 0.162
ANXA6_P08133_96_LIVGLMRPPAYCDAK (UniProt P08133) | -0.00557 | 0.044
ANXA4_P09525_108_GAGTDEGCLIEILASR (UniProt P09525) | -0.0552 | -0.0547
ANKFY1_Q9P2R3_843_QGLTPFACAMTFK (UniProt Q9P2R3) | -0.0732 | -0.114
APAF1_O14727_450_NCSQLQDLHK (UniProt O14727) | 0.21 | 0.0548
ANKHD1_Q8IWZ3_1965_QLFACVPK (UniProt Q8IWZ3) | -0.0508 | -0.109
ANXA2_P07355_262_GDLENAFLNLVQCIQNK (UniProt P07355) | 0.248 | 0.417
ANKRD44_Q8N8A2_420_TCLHAAAAGGNVECIK (UniProt Q8N8A2) | -0.0346 | -0.0123
ANKRD27_Q96NW4_112_EESFSILCIAHPLEK (UniProt Q96NW4) | 0.234 | 0.136
APAF1_O14727_115_TVLCEGGVPQRPVVFVTR (UniProt O14727) | -0.0697 | -0.151
APMAP_Q9HDC9_140_FGSGPCK (UniProt Q9HDC9) | -0.0345 | 0.017

Target | probe-labelled cysteine peptide fold change (10 µM) | probe-labelled cysteine peptide fold change (50 µM)
ANXA7_P20073_298_CYQSEFGR (UniProt P20073) | -0.064 | 0.0537
ANKHD1_Q8IWZ3_615_AGHLCTVQFLISK (UniProt Q8IWZ3) | -0.0157 | -0.126
AP1G1_O43747_160_AALCAVHVIR (UniProt O43747) | 0.0228 | 0.101
ANKMY2_Q8IV38_390_LDVNSNCVNEEQPEAEVGISQK (UniProt Q8IV38) | -0.0157 | -0.183
APIP_Q96GX9_188_MAHAMNEYPDSCAVLVR (UniProt Q96GX9) | 0.106 | 0.183
ANKZF1_Q9H8Y5_180_CVLGPHQDPPEEAELLLQNLQSR (UniProt Q9H8Y5) | -0.313 | -0.207
ANXA4_P09525_315_KVLLVLCGGDD (UniProt P09525) | -0.339 | -0.316
ANKRD39_Q53RE8_107_ASYCGHTEIAR (UniProt Q53RE8) | 0.114 | 0.0148
ANLN_Q9NQW6_469_QETHCQSTPLK (UniProt Q9NQW6) | -0.086 | -0.142
ANKRD50_Q9ULJ7_161_LRDPAVQSLLQPGECER (UniProt Q9ULJ7) | -0.00261 | 0.0664
AP3B1_O00203_507_ASILWLIGENCER (UniProt O00203) | 0.0898 | 0.0982
AP1B1_Q10567_57_DVSALFPDVVNCMQTDNLELK (UniProt Q10567) | 0.215 | 0.139
APEH_P13798_312_LSPDQCR (UniProt P13798) | 0.00256 | 0.0848
ANKS1A_Q92625_211_MLLNAHPNLLSCNTK (UniProt Q92625) | 0.0536 | 0.0941
APEX2_Q9UBZ4_45_ILDELDADIVCLQETK (UniProt Q9UBZ4) | -0.0134 | -0.0373
ANKHD1_Q8IWZ3_1390_EVNQFPSDIECMR (UniProt Q8IWZ3) | 0.119 | 0.252

2 entries drawn at random from the list so far, as already listed:
Target | probe-labelled cysteine peptide fold change (10 µM) | probe-labelled cysteine peptide fold change (50 µM)
ANXA4_P09525_315_KVLLVLCGGDD (UniProt P09525) | -0.339 | -0.316
ANKZF1_Q9H8Y5_180_CVLGPHQDPPEEAELLLQNLQSR (UniProt Q9H8Y5) | -0.313 | -0.207
